In patent US20100069462A1 (JICHI MEDICAL UNIVERSITY, published 2010):
No constants are given. Whether binding was seen depends on the method and setting. Binding seen in cells or lysates may run through a third protein. Some results given as binding are weak or reduced against the parent protein; the word gives no strength.

The chains behind the UniProt entries cited, without tags or fusion partners. Where a name states a change or a piece, a line headed by the entry shows the natural chain unless it says otherwise.
UniProt O00165: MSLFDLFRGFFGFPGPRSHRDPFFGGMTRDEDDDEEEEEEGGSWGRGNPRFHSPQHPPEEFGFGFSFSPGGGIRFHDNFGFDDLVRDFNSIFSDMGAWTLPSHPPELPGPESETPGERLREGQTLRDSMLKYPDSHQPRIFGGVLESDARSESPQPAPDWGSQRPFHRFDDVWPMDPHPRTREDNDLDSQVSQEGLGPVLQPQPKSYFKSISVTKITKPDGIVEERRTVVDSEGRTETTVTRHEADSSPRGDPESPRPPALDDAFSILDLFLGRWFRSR
UniProt O35129: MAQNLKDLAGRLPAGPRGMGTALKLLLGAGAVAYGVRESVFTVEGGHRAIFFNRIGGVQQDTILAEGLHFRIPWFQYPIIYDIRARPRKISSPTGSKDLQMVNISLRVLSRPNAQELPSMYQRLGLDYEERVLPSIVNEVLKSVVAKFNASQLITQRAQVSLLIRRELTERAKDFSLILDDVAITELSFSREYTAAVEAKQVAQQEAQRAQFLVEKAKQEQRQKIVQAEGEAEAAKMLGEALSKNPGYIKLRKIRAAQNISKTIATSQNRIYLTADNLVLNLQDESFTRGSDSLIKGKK

Experiments:
[1] = target: Hax-1-FLAG protein (FLAG tag fused to the C-terminus of the Hax-1 protein) (human) (UniProt O00165); assay: in vitro binding experiment (summary of Example 4, GST pull-down)
[2] = target: Hax-1-FLAG protein (FLAG tag fused to the C-terminus of the Hax-1 protein) (human) (UniProt O00165); assay: in vitro GST pull-down on glutathione-sepharose beads, anti-FLAG Western blot

- binding [1]: binds
- binding [2]: binds
Substance: glutathione S-transferase (GST)-PHB2 fusion protein (from UniProt O35129 1-299)
